Reference: publication doi:10.1101/2025.11.10.687648
These are yes or no findings as the source states them, for the method shown. In cells and extracts the contact can be indirect. Some binding calls cover weakened binding; strength is not graded here.

Chains of the proteins cited; added tags and fusions are not shown.
UniProt P01106: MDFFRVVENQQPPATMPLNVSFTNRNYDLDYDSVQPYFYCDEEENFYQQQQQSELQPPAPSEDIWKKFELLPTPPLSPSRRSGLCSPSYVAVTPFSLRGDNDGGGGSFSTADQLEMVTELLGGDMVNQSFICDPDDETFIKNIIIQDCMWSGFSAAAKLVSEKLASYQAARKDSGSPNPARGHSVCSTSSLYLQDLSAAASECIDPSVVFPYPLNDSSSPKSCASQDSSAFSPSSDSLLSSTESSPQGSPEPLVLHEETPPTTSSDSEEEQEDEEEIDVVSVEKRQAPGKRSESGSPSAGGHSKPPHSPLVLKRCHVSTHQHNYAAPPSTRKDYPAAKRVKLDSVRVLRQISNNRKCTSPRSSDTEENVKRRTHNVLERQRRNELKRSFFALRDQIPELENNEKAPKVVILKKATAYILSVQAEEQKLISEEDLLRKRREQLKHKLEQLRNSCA
UniProt Q9UMN6: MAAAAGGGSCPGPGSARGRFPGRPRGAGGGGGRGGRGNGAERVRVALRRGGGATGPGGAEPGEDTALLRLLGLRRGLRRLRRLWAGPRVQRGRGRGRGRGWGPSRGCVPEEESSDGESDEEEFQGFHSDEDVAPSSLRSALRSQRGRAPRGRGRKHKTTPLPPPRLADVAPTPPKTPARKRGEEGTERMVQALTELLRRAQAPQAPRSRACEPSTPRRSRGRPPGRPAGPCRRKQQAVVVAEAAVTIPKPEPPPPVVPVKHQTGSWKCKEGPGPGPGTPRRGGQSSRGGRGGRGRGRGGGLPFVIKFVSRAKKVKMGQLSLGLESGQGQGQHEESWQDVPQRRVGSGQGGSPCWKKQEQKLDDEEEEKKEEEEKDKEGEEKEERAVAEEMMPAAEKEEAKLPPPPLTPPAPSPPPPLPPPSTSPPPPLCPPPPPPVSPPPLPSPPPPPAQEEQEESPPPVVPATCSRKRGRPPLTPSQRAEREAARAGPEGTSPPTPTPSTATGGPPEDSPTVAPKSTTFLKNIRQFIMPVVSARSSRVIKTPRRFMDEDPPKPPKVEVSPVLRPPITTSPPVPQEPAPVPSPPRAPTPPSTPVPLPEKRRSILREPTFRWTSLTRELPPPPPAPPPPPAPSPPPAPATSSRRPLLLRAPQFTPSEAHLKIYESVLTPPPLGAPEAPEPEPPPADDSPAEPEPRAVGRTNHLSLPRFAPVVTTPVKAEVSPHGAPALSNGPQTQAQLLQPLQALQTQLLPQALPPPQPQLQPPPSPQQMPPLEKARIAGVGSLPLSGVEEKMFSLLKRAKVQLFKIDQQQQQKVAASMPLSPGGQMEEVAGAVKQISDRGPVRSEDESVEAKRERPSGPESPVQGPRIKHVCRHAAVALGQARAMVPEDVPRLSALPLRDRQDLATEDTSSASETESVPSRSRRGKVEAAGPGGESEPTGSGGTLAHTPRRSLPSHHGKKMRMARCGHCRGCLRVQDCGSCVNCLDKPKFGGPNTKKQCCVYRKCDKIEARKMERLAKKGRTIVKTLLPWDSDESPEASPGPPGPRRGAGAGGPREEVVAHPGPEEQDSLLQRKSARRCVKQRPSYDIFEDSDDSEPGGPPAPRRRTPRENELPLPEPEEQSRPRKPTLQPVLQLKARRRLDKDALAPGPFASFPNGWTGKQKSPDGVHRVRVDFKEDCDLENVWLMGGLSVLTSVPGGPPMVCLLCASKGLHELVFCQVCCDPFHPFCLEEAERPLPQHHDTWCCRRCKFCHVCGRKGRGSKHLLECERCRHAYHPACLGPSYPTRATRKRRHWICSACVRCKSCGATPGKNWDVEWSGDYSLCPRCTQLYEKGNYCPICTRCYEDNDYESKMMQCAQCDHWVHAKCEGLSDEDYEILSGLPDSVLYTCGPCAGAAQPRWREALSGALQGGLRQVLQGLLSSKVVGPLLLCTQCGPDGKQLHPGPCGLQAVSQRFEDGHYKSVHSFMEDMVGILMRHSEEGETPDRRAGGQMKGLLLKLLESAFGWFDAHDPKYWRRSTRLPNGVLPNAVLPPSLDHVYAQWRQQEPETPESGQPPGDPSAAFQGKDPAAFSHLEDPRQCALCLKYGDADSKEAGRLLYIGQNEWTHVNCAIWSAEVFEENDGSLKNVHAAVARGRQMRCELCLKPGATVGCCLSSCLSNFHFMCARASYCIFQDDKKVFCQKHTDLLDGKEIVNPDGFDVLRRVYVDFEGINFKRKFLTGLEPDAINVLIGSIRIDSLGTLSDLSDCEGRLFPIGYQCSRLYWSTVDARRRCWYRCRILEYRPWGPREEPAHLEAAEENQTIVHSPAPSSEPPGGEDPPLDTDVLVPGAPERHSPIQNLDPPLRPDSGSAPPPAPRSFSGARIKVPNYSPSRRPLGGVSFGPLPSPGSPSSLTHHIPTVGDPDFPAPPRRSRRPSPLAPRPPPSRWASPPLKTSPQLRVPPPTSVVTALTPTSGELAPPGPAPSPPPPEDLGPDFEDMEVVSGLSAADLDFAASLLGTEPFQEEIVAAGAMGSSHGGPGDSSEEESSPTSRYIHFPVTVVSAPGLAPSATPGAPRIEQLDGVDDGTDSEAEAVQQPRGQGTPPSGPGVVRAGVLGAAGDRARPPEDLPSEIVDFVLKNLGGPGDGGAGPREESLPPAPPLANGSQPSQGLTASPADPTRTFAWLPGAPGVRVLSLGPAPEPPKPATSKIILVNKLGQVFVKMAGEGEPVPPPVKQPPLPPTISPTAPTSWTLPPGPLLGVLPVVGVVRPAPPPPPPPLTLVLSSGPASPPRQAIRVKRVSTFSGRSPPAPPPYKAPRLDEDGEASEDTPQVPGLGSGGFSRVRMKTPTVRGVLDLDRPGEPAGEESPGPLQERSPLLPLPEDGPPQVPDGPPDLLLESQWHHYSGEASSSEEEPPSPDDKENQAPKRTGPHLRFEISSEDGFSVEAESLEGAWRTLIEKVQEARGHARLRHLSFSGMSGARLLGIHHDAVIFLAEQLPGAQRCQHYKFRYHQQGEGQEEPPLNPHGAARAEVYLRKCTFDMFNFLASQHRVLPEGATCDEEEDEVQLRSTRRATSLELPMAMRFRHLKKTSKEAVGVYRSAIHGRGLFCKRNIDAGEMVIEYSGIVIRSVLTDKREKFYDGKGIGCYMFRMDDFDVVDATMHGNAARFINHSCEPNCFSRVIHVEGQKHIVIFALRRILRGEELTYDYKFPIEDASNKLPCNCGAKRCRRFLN

T1: Menin (human (endogenous in A673, CHLA10, TC32, U2OS)) (UniProt O00255)
T1 sequence: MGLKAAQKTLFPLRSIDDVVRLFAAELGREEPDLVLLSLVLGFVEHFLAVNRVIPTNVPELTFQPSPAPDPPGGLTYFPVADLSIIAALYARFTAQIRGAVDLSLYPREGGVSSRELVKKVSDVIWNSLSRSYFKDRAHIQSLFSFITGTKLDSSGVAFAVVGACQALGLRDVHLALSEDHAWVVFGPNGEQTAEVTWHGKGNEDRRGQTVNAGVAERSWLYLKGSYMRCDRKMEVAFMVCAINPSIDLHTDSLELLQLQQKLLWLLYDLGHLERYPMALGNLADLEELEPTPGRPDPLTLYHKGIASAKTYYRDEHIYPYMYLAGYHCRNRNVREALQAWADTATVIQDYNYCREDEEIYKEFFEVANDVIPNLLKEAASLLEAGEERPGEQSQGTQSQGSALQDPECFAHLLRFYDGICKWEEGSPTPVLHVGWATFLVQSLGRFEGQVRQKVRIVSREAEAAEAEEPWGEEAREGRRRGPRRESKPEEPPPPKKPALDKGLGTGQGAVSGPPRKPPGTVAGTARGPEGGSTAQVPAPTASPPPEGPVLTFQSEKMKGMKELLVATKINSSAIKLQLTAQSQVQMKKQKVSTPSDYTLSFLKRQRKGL


Tests used:
[1] = molecular target: MYC (human (endogenous in A673, CHLA10, TC32, U2OS)) (UniProt P01106); assay: co-IP
[2] = molecular target: T1, Menin (human (endogenous in A673, CHLA10, TC32, U2OS)); assay: co-IP

Molecule | binding [1] | binding [2]
MLL2 (KMT2B) (from UniProt Q9UMN6 1-2715) | no binding | binds
MYC (from UniProt P01106 1-454) |  | binds
Menin (protein, UniProt O00255 1-610) MGLKAAQKTLFPLRSIDDVVRLFAAELGREEPDLVLLSLVLGFVEHFLAVNRVIPTNVPELTFQPSPAPDPPGGLTYFPVADLSIIAALYARFTAQIRGAVDLSLYPREGGVSSRELVKKVSDVIWNSLSRSYFKDRAHIQSLFSFITGTKLDSSGVAFAVVGACQALGLRDVHLALSEDHAWVVFGPNGEQTAEVTWHGKGNEDRRGQTVNAGVAERSWLYLKGSYMRCDRKMEVAFMVCAINPSIDLHTDSLELLQLQQKLLWLLYDLGHLERYPMALGNLADLEELEPTPGRPDPLTLYHKGIASAKTYYRDEHIYPYMYLAGYHCRNRNVREALQAWADTATVIQDYNYCREDEEIYKEFFEVANDVIPNLLKEAASLLEAGEERPGEQSQGTQSQGSALQDPECFAHLLRFYDGICKWEEGSPTPVLHVGWATFLVQSLGRFEGQVRQKVRIVSREAEAAEAEEPWGEEAREGRRRGPRRESKPEEPPPPKKPALDKGLGTGQGAVSGPPRKPPGTVAGTARGPEGGSTAQVPAPTASPPPEGPVLTFQSEKMKGMKELLVATKINSSAIKLQLTAQSQVQMKKQKVSTPSDYTLSFLKRQRKGL | binds | 
